Article PMC8137831
Results are given in words; binding and its absence hold for the method and conditions named. Binding seen in cells or lysates may run through a third protein. Some entries that bind do so weakly or less than the wild type. Tags and fused reporters may be left off the sequences shown.

Amino acid sequences for entries named in this document (tags omitted). Residues count along the entry.
UniProt Q9QUK6, residues 26-835: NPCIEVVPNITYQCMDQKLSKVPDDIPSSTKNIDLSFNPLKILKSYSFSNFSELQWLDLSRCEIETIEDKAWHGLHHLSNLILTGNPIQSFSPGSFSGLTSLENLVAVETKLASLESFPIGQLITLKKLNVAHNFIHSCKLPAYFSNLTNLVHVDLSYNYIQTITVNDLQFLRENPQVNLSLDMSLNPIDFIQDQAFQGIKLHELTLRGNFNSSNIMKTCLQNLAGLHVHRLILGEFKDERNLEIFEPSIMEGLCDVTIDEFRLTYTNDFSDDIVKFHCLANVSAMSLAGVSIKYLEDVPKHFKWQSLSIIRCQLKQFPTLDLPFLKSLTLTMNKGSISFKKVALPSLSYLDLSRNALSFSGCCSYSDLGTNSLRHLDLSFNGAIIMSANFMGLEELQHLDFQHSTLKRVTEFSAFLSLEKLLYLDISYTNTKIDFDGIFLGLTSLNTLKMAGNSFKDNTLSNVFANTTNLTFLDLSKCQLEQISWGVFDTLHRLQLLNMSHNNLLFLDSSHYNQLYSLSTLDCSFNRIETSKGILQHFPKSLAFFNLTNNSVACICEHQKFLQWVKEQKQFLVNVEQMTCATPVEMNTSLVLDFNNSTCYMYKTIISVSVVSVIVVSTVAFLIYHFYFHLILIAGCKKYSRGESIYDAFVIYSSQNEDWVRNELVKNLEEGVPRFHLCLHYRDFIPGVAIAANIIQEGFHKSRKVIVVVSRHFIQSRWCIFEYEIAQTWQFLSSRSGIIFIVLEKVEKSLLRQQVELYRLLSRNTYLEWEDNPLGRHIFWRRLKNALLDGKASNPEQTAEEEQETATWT

Target: HA-TLR4 (UniProt Q9QUK6)
Assay: co-IP; bone marrow-derived macrophages cotransfected with psicoR-HA-TLR4 and psicoRFlag-CTRP1 or psicoRFlag-Adipo R1; lysates pre-treated with Protein G Plus/Protein A agarose, incubated with antibodies against HA or Flag, precipitated with Protein G Plus/Protein A agarose, SDS-PAGE; for Adipo R1 with TLR4 also with CTRP1 (interaction enhanced)

Binder | binding
Flag-Adipo R1 (receptor, UniProt Q91VH1 1-375) MSSHKGSAGAQGNGAPSGNREADTVELAELGPLLEEKGKRAASSPAKAEEDQACPVPQEEEEEVRVLTLPLQAHHAMEKMEEFVYKVWEGRWRVIPYDVLPDWLKDNDYLLHGHRPPMPSFRACFKSIFRIHTETGNIWTHLLGFVLFLFLGILTMLRPNMYFMAPLQEKVVFGMFFLGAVLCLSFSWLFHTVYCHSEKVSRTFSKLDYSGIALLIMGSFVPWLYYSFYCSPQPRLIYLSIVCVLGISAIIVAQWDRFATPKHRQTRAGVFLGLGLSGVVPTMHFTIAEGFVKATTVGQMGWFFLMAVMYITGAGLYAARIPERFFPGKFDIWFQSHQIFHVLVVAAAFVHFYGVSNLQEFRYGLEGGCTDDSLL | binds
Flag-CTRP1 (protein, UniProt Q9QXP7 26-281) LVPRVQEEQQEWEETEELPSPLDPVTRPEETREKYSPRQGEDLPTSRCYRCCDPSTPVYQTIPPPQINITILKGEKGDRGDRGLQGKYGKIGSTGPRGHVGPKGQKGSIGAPGNHCKSQYAAFSVGRKKALHSNDYFQPVVFDTEFVNLYKHFNMFTGKFYCYVPGIYFFSLNVHTWNQKETYLHIMKNEEEVVILYAQVSDRSIMQSQSLMMELREEDEVWVRLFKGERENAIFSDEFDTYITFSGYLVKPASEP | no binding
